# Results are given in words; binding and its absence hold for the method and conditions named. Binding calls can cover weak binding; strength is not graded here.
# Molecular target: C. immitis calcineurin catalytic subunit (CnA), residues 27-395 (C. immitis) (UniProt J3K8M7)
# Experiment: crystal structure; both purified
substance,measurement,value
"C. immitis calcineurin regulatory subunit (CnB), residues 22-191 (from UniProt A0A0D8JSK0) (domain or fragment)",binding,binds

# Source: PMC6753081 (Nature Communications, 2019)
